The text below walks through data of article PMC5740495.

Protein sequences, listed by entry. Tags and fused reporters are not part of them.
UniProt P55060: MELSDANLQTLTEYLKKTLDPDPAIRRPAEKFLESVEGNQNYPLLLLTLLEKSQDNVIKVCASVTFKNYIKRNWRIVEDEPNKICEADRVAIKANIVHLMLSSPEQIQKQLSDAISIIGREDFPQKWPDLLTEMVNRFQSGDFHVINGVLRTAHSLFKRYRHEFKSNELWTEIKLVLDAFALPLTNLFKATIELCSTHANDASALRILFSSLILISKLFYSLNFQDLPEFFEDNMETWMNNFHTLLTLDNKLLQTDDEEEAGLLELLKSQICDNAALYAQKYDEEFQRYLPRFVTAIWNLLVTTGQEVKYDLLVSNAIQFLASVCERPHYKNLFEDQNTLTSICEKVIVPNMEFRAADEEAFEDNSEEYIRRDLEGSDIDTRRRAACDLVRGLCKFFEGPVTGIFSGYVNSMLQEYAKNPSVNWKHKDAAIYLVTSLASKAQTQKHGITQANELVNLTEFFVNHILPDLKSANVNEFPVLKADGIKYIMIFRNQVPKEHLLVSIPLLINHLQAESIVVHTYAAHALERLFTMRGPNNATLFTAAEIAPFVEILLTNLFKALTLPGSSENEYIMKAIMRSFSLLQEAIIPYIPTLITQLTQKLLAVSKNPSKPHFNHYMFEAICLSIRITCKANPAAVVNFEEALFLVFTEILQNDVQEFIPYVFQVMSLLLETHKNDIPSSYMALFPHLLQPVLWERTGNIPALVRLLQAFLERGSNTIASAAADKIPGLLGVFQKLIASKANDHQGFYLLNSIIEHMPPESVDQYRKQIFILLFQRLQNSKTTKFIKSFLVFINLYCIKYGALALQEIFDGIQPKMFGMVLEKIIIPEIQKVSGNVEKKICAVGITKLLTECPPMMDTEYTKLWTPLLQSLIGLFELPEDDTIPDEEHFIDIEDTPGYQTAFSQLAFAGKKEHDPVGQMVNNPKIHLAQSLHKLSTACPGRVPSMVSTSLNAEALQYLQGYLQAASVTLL
UniProt P49790: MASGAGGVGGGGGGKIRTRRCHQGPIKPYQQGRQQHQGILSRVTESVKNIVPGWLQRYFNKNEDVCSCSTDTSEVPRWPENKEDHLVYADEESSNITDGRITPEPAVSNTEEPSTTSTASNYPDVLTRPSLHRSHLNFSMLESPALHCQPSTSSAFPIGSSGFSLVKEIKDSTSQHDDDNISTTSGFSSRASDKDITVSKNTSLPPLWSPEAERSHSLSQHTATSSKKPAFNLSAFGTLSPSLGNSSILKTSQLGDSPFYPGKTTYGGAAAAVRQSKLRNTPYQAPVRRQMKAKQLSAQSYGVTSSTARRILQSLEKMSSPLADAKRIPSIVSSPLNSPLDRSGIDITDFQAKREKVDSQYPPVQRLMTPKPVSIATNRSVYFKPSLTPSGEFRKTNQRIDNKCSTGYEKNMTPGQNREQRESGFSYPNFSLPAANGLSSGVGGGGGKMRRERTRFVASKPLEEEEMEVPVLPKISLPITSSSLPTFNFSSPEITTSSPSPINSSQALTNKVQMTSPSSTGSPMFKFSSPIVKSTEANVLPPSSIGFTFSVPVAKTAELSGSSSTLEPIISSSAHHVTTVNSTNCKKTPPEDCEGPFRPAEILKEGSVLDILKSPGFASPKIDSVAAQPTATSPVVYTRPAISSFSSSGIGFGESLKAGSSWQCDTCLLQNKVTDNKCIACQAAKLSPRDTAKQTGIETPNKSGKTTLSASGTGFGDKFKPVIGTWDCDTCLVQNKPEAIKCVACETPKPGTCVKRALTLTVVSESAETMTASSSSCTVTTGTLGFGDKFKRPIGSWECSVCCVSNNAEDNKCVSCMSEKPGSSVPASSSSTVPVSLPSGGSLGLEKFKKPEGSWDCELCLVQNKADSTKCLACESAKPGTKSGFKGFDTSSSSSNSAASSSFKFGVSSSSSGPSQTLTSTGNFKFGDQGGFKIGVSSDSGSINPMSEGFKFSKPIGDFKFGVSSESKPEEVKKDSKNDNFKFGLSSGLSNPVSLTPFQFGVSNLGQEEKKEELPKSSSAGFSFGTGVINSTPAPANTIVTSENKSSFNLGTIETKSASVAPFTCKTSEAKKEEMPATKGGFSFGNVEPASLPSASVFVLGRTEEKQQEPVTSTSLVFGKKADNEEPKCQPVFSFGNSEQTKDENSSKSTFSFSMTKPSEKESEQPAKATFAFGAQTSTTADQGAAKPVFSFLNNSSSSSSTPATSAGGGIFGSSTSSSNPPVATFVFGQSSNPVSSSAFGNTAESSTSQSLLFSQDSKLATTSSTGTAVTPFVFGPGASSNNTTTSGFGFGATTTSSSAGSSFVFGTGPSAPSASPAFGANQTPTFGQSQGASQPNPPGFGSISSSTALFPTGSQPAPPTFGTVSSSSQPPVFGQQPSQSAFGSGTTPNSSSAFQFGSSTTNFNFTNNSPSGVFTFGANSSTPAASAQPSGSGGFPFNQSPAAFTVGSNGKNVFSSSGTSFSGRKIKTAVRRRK

These are yes or no findings as the source states them, for the method shown. Binding seen in cells or lysates may run through a third protein. These calls come from enrichment with a bait or labelling near it, and not all partners need be listed.

Assay in all cases: proximity labelling; BioID, large-scale, direct identification of biotinylated peptides: same NTR-BirA* lines; biotinylated peptides eluted from streptavidin beads with 80% ACN, 20% TFA after the on-bead digest, MS
One assay deals with T1, NXT2 (human) (UniProt Q9NPJ8).
T1 sequence: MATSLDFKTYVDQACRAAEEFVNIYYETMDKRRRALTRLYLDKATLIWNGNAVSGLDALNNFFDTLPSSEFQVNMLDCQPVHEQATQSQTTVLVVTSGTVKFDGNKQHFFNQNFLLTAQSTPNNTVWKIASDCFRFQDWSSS

The target in the next assay is XPO2 (human) (UniProt P55060).
In the next assay the target is T2, XPO7 (human) (UniProt Q9UIA9).
T2 sequence: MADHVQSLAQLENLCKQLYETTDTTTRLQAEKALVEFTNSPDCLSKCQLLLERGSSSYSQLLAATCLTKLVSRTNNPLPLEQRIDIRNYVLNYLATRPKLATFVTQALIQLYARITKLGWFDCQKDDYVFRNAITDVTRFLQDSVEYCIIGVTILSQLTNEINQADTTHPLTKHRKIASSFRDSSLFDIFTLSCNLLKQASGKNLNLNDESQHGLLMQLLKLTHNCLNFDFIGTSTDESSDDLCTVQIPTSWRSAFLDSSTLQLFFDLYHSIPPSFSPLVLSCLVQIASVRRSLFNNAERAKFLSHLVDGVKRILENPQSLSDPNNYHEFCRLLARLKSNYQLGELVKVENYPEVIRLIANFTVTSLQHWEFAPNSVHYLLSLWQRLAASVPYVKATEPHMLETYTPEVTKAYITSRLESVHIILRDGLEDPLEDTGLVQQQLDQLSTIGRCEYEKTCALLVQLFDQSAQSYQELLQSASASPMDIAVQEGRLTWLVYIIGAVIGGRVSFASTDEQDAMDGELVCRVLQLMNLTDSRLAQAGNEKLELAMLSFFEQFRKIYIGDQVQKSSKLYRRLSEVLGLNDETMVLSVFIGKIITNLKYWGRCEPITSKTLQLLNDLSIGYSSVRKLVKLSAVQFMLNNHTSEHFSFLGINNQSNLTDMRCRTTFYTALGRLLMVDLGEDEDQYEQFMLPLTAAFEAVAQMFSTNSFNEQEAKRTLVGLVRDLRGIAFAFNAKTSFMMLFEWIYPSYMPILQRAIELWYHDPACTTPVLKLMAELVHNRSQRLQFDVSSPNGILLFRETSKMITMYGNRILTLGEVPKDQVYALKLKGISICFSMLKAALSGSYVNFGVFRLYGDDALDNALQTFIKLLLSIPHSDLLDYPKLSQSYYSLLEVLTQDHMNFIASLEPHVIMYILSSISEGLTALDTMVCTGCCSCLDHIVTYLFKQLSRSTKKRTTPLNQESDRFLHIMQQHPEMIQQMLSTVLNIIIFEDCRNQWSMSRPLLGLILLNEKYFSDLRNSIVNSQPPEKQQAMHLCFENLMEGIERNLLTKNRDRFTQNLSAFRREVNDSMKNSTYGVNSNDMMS

Assay [1] has as its target T3, importin 13 (IPO13) (human) (UniProt O94829).
T3 sequence: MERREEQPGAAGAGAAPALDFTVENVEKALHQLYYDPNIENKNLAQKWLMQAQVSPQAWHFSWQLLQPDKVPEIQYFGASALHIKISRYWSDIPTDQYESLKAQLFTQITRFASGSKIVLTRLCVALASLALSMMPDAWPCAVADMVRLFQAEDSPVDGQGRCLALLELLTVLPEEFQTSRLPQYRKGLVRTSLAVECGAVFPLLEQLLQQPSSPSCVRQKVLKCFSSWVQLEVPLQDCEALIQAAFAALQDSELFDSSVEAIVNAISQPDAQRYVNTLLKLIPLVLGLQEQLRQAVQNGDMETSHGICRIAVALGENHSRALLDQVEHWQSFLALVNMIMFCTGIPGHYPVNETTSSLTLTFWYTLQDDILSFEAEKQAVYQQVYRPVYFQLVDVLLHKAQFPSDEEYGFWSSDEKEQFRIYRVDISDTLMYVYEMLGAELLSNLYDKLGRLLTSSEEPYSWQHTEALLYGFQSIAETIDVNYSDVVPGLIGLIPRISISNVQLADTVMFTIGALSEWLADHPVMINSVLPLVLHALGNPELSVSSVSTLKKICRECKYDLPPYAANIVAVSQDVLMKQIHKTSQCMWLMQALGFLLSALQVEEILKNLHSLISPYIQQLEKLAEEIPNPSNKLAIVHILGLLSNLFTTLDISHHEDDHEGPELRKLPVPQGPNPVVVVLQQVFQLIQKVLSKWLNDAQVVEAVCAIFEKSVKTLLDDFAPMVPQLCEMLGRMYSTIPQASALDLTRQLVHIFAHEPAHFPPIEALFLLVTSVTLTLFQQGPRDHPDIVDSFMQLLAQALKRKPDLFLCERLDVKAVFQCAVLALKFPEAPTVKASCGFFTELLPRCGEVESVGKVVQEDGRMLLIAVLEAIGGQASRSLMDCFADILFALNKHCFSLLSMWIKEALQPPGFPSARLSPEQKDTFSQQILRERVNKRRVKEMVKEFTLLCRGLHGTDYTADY

Take NUP153 (from UniProt P49790 1-1475): the binding entry with NXT2 (human) was “binds”; with XPO2 (human) it was “binds”; with XPO7 (human), “binds”; in assay [1], “binds weakly”.
